Assay [1] deals with T1, BceA, ATPase (nucleotide binding domain) subunit of the ABC transporter BceAB (B. subtilis) (UniProt O34697).
T1 sequence: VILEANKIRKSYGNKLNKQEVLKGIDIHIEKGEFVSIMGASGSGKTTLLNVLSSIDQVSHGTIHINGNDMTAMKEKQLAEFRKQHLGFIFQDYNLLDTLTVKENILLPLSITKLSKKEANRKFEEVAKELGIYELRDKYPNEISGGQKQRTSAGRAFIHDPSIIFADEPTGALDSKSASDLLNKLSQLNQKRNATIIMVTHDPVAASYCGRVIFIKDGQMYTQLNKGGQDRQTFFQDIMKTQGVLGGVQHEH
Briefly: pull-down + SEC; proteins co-expressed in E. coli from one plasmid; membranes solubilised with 1% LMNG; His6-BceA held on Co3+-Talon resin, eluted with 250 mM imidazole; Superdex 200 Increase 10/300 GL in 25 mM Tris pH 8, 150 mM NaCl, 0.005% LMNG; SDS-PAGE of peak fractions; chromatogram compared with isolated ….

Assay [2] concerns the target T1, BceA, ATPase (nucleotide binding domain) subunit of the ABC transporter BceAB (B. subtilis). As to the kind of experiment: cryo-EM structure; nucleotide-free BceAB-S, co-expressed and co-purified complex in LMNG at ~7 mg/mL; Titan Krios, K3; both purified.
Assay [3] addresses T2, BceAB ABC transporter (BceA2:BceB1) (B. subtilis, UniProt O34697 2-253; O34741 1-646).
T2 construct: BceA of Bacillus subtilis, as m1; BceB of Bacillus subtilis, as m2; The construct for isolated BceAB (without BceS) is not described here; also called BceAB transporter; isolated BceAB; source: E. coli C41(DE3), co-expressed (with or without BceS), purified (LMNG, Co3+-Talon, Superdex 200); not shown: His6, N-terminal, kept; copies: 2 + 1
T2 sequence 1: T1 sequence
T2 sequence 2: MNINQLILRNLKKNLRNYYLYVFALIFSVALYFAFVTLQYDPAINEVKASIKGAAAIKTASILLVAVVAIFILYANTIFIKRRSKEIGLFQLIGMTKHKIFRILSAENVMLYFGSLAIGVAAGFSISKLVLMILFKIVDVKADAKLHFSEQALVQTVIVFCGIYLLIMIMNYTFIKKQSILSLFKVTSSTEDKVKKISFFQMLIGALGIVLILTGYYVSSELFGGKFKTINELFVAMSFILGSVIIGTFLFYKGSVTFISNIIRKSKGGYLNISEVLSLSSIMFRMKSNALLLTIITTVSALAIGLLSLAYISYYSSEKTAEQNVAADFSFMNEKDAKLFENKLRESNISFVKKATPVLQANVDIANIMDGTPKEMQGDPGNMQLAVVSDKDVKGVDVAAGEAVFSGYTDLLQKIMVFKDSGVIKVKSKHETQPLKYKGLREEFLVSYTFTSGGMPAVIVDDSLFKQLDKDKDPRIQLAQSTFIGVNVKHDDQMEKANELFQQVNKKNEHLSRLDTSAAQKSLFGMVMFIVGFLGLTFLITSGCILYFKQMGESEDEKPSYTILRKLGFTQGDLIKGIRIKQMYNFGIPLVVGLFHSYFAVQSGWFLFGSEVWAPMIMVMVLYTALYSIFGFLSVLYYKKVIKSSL
As to the kind of experiment: pull-down + SEC; proteins co-expressed in E. coli from one plasmid; membranes solubilised with 1% LMNG; His6-BceA held on Co3+-Talon resin, eluted with 250 mM imidazole; Superdex 200 Increase 10/300 GL in 25 mM Tris pH 8, 150 mM NaCl, 0.005% LMNG; SDS-PAGE of peak fractions; chromatogram compared with isolated ….

The target of assay [4] is T2, BceAB ABC transporter (BceA2:BceB1). Briefly: cryo-EM structure; nucleotide-free BceAB-S, co-expressed and co-purified complex in LMNG at ~7 mg/mL; Titan Krios, K3; both purified.
Assay [5] concerns the target T3, BceB, membrane-spanning permease of the ABC transporter BceAB (B. subtilis) (UniProt O34741).
T3 sequence: T2 sequence 2
Described as above.

In assay [6] the target is T2, BceAB ABC transporter (BceA2:BceB1). Briefly: cryo-EM structure; BceAB-S, co-expressed and co-purified complex in LMNG, incubated on ice with 5 mM ATPγS and 5 mM MgCl2 for 30 min before freezing; both purified.

Where a chain is given by its changes, count along the chain named. Names and notes keep the numbering of the source. No constants are given. Whether binding was seen depends on the method and setting. For part of these data: In cells and extracts the contact can be indirect. Some results given as binding are weak or reduced against the parent protein; the word gives no strength. For part of these data: Sequences can lack the tags named with a protein.

B1: BceB, membrane-spanning permease of the ABC transporter BceAB (protein, UniProt O34741 1-646)
chain: T2 sequence 2
Turning to B1, the binding result in assay [1] and in assay [2] was “binds” in each case.

B2: BceS sensor histidine kinase (natural protein, B. subtilis, UniProt O35044 1-334, looked up)
chain: MIKAFLIERRSWIAAFLFQQALMLFIAFVDPSISFGNVLYMVYLCILFFIIFLWFRYRKETAFYKSLKTWENNLDVTAINEPETPFEAMVERSIAGQTEHLKQTAARHRLALENEKDELMAWIHEVKTPLTAMHLIIDRMEEKALKSQLSYEWLRIHLLLDQQLHQKRISFIENDLSVEFIQLQPLIFKEIKDLQSWCIQKGIGFDIQLEAKEVLSDAKWLAFIIRQLLTNAVKYSEASEIEIKSFQKGEQTQLQVKDCGRGIDPKDVPRIFDKGFTSTTDHHDQASTGMGLYLAKKAAAPLLIHIDVESEFGAGTVFTLTFPIRNQFEHVISV
notes: BceS of Bacillus subtilis; gene PCR amplified from B. subtilis genomic DNA; Dimer in the BceAB-S complex; also called BceS kinase; BceS dimer
In the case of B2, the binding entry in assay [3], in assay [4], in assay [5] and in assay [6] was “binds” throughout.

B3: BceS E115K/K116E double charge swap variant (protein, UniProt O35044 1-334)
chain: B2 chain with E115K, K116E
Consider B3, for which the binding result in assay [3] was “binds”.

B4: BceS E115K with H124Q substitution (protein, UniProt O35044 1-334)
chain: B2 chain with E115K, H124Q
In the case of B4, the binding entry in assay [3] was “binds”.

B5: BceS E115K variant (protein, UniProt O35044 1-334)
chain: B2 chain with E115K
B5: in assay [3], the binding entry is recorded as “binds”.

Values taken from article PMC10314905, “Architecture of a complete Bce-type antimicrobial peptide resistance module” (Nature Communications, 2023).
